According to publication PMC6004359:
No constants are given. Whether binding was seen depends on the method and setting. Binding seen in cells or lysates may run through a third protein. A yes stands for co-enrichment or nearness to the bait. Other partners may have been found. For some assays here: No binding means not detected with the bait.

The chains behind the UniProt entries cited, without tags or fusion partners. Where a name states a change or a piece, a line headed by the entry shows the natural chain unless it says otherwise. A line that says so, or that is headed by a name, gives the form on record, which may keep a tag or linker. Residues count along the entry.
wild-type KIT (expressed in Ba/F3 cells) (P10721, residues 26-976): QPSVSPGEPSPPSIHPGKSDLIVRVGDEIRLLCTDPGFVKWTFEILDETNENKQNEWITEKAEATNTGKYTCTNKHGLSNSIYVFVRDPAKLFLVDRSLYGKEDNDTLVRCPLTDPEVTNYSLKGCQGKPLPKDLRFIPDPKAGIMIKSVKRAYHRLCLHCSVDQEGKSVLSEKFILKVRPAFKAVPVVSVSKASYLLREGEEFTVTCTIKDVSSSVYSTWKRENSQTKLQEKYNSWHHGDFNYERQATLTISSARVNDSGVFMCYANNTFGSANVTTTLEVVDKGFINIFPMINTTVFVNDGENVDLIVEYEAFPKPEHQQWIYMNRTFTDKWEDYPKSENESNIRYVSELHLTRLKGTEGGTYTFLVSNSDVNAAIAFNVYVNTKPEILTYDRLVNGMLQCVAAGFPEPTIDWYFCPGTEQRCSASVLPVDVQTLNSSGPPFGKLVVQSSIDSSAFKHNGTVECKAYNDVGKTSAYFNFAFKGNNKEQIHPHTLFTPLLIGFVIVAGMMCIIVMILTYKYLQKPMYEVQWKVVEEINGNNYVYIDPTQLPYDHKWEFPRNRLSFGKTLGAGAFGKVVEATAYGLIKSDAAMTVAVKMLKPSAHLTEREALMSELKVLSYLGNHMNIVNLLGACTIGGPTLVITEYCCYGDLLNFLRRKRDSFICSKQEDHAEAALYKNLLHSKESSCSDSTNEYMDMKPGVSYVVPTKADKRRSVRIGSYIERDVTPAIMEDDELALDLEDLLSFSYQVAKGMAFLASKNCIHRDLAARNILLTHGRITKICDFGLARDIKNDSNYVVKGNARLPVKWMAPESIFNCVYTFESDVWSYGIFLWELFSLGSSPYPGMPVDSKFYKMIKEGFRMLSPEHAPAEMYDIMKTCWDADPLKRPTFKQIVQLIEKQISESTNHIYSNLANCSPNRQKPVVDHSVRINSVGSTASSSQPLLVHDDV
KIT/D816V (expressed in Ba/F3 cells) (P10721, form named): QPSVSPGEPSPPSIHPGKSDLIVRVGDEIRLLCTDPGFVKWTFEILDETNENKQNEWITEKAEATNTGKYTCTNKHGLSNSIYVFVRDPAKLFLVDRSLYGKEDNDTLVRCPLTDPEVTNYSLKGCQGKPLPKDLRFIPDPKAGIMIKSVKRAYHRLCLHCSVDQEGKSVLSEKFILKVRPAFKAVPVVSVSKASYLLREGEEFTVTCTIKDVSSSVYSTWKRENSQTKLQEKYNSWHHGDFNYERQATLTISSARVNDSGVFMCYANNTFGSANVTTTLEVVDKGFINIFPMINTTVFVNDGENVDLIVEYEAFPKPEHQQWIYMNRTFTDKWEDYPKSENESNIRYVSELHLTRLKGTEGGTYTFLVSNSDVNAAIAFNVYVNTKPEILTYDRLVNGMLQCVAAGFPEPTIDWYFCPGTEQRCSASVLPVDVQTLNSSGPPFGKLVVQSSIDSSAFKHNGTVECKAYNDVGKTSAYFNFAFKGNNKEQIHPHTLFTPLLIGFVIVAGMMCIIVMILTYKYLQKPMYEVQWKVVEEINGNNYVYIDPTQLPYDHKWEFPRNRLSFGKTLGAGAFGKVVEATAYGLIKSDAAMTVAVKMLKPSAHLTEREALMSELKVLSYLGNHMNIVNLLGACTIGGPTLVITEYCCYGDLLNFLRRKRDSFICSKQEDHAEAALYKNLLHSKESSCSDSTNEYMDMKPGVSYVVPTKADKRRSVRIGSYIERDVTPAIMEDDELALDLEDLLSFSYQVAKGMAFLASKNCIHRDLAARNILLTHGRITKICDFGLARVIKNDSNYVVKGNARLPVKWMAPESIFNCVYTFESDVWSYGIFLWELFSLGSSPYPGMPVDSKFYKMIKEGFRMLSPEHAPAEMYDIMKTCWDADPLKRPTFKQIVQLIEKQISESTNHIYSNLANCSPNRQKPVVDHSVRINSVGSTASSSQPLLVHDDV

Experiments:
[1] = target: wild-type KIT (expressed in Ba/F3 cells) (human) (UniProt P10721); assay: affinity purification with mass spectrometry; 900 million Ba/F3 cells expressing wild-type KIT or KIT/D816V, starved 4 h, SCF 100 ng/ml 2 min; lysis in 1% Triton X-100, 25 mM Tris pH 7.5, 150 mM NaCl, 5 mM EDTA, 10% glycerol; KitC1 antibody and protein G Dyna beads at 4 °C; SDS-PAGE, Coomassie, bands excised for mass spectrometry
[2] = target: KIT/D816V (expressed in Ba/F3 cells) (human) (UniProt P10721); assay: as above

B1: XK-related protein 5 (XKR5), endogenous in Ba/F3 cells (protein, UniProt Q5GH66 1-676)
chain: MHAGLLGLSALLQAAEQSARLCSIVFYFATGRLLWGWLALSVLLPGFLVQALSFLWFRADGHQGQWWLAVLHLLQLGVWKRHWDSVATALWKGKEAPSWGQLHLQEADLSALRLLEALLQTGPHLLLQAYVFLASDFTDIVPGISALLSWSSLSWALVSYNRFLGIMKPGHHTMLWAALLCQQLWRMGMLGARVLSLVLFCRVYRVWVLVVGGAHWLVMTFWLVAQQSDIVESTCHWRLFNLLVGAVFILCYINFWDSPSRSRVASFYLVMLLENSILLLLATDFLQGVPGTSLWTVVGVLSGFLIGCASLVIYYSLLHPKSSDIQQSFMRKCCGPIEDNKPESEPPPRAVDPTGEMPDSSSWCQEESYELTSLDKAPSPEQNTAEVGLGEQRSGESSFFSHHHWLLLKLALKTGSVSRINAALGGDSPGCSCPPLLGSSQHCDLQRKPLFSHQDLPSSPCDPLTLEKGSEYVGAPKAEMESLETSSYLSFASELEDNATTQKPPATQEDSPKLAGSKADLAAQGKETEGPLQGKEGQESTTLYFSAAMDRTTSHQRGSPVVLRISHSETLVESRPGQPALPQAVTKPFPVTVANISPIPGRNFRPSAELPGRAPDSSECEEWKDAARDPSMQSSLPKMRLKAAEEPCFTSTPKSESIQRDYSCRDRVRQEMSFFI
- binding [1]: no binding
- binding [2]: binds
